Source: paper PMC9108607, “The intrinsically disordered CARDs‐Helicase linker in RIG‐I is a molecular gate for RNA proofreading”
Numbering of substitutions follows the chain as printed. For at least one entry, the source does not settle the construct or the ends of the probe. For some of these results: Weaker means in comparison with the reference protein, sequence or condition of that experiment. Protein sequences can lack the tags named with them. For some of these results: At least one verdict rests on a figure or table, not on a statement of the authors. For some of these results: Whether high values mean tight binding is not given here for every scale.

Tests used:
Assay in all cases: RNA-dependent ATPase titration (KD,app)
WT RIG-I (human) = biological target: T1, WT RIG-I (human) (UniProt O95786); settings: 1 mM ATP; 5'OH; Buffer A: 50 mM MOPS pH 7.4, 5 mM DTT, 5 mM MgCl2, 0.01% Tween20, 25°C (fluorimetry: 15 nM RNA; ATPase: 15 nM protein, 1 mM ATP); recombinant protein; protein details: 6xHis-SUMO removed by Ulp1; label: complement printed with 5' biotin and 3' DY547
T1 sequence (looked up, limits assumed): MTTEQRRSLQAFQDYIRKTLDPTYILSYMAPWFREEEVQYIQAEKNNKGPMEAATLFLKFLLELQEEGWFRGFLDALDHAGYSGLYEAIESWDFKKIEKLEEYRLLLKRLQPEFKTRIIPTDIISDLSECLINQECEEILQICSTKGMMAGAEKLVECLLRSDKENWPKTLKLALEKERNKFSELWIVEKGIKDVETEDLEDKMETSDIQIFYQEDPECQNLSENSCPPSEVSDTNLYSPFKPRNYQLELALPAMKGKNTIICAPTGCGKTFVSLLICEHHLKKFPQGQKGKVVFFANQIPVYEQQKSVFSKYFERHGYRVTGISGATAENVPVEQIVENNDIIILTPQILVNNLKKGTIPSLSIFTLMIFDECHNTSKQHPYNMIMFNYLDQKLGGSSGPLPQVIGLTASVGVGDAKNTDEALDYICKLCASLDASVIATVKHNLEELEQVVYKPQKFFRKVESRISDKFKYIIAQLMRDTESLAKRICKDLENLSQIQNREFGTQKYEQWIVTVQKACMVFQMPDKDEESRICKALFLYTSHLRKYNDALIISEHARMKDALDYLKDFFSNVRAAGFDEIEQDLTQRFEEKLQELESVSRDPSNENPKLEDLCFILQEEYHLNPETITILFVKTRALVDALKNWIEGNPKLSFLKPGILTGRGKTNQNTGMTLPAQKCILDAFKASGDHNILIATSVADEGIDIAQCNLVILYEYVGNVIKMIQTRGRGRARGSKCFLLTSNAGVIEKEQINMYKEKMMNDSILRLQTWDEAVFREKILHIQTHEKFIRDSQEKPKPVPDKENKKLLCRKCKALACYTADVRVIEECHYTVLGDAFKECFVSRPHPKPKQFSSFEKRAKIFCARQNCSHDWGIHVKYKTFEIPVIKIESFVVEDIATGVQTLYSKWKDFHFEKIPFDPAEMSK

[1] = biological target: T2, CHL-Hel-CTD cf190-210 D194K,E196K,E198K,D199K,E201K,D202K,E205K,D208K (human) (UniProt O95786); settings: 1 mM ATP, Buffer A: 50 mM MOPS pH 7.4, 5 mM DTT, 5 mM MgCl2, 0.01% Tween20, 25°C (fluorimetry: 15 nM RNA; ATPase: 15 nM protein, 1 mM ATP), recombinant protein, protein details: 6xHis-SUMO removed by Ulp1
T2 sequence (looked up, limits assumed): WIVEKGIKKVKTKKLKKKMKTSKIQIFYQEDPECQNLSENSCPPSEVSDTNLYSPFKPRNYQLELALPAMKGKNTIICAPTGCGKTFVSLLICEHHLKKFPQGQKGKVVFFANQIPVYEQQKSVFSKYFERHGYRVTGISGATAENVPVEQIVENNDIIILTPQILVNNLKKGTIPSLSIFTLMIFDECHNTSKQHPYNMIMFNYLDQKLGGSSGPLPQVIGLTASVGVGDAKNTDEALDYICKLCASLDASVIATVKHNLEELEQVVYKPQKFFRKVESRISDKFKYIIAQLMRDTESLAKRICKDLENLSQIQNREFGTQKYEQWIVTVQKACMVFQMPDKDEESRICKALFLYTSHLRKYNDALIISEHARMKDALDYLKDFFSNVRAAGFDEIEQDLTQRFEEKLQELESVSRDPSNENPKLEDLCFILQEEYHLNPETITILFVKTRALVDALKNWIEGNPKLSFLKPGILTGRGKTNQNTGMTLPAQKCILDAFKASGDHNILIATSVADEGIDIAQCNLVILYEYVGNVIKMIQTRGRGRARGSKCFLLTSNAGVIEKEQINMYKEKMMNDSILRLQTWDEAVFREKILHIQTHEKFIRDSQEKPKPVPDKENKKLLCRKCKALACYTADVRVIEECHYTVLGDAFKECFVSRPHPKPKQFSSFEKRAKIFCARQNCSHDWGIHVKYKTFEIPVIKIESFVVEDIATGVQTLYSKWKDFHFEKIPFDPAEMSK

CHL-Hel-CTD (human) = biological target: T3, CHL-Hel-CTD (human) (UniProt O95786); settings: 1 mM ATP, Buffer A: 50 mM MOPS pH 7.4, 5 mM DTT, 5 mM MgCl2, 0.01% Tween20, 25°C (fluorimetry: 15 nM RNA; ATPase: 15 nM protein, 1 mM ATP), recombinant protein, protein details: 6xHis-SUMO removed by Ulp1
T3 sequence (looked up, limits assumed): T2 sequence (looked up, limits assumed) with K9D, K11E, K13E, K14D, K16E, K17D, K20E, K23D

Hel-CTD (human) = biological target: T4, Hel-CTD (human) (UniProt O95786); settings: 1 mM ATP, value only in figure, Buffer A: 50 mM MOPS pH 7.4, 5 mM DTT, 5 mM MgCl2, 0.01% Tween20, 25°C (fluorimetry: 15 nM RNA; ATPase: 15 nM protein, 1 mM ATP), recombinant protein, protein details: 6xHis-SUMO removed by Ulp1
T4 sequence (looked up, limits assumed): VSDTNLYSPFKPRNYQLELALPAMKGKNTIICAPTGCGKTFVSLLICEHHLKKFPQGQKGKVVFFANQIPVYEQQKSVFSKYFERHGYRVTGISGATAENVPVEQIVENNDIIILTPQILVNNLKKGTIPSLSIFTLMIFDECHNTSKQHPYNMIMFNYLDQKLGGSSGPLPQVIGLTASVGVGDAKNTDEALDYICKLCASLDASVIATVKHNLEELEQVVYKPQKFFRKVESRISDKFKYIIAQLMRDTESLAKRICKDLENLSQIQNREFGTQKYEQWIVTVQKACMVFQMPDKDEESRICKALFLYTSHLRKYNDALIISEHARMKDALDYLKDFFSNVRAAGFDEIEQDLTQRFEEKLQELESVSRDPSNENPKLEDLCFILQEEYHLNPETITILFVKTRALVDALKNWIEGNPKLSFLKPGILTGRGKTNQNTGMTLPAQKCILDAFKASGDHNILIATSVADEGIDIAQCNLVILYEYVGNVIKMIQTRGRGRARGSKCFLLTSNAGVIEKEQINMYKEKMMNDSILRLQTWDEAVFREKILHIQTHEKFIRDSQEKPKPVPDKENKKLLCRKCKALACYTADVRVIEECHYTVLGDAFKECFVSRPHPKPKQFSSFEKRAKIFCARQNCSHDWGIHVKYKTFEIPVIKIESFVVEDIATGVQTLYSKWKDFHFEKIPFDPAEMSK

[2] = CHL inhibition lost, 5'OH, label: complement printed with 5' biotin and 3' DY547
[3] = range for three non-PAMP RNAs, 5'OH, label: complement printed with 5' biotin and 3' DY547
[4] = 5'OH, label: complement printed with 5' biotin and 3' DY547

## ACGUCCUGAUAGUUAGUAUCCAUCG / CGAUGGAUACUAACUAUCAGGACGUAU [5'OH 3'ovg ds25]
WT RIG-I (human)
  binding signal (fold weaker than Hel-CTD): 60
[1]; [2]
  binding result: binds
CHL-Hel-CTD (human); [3]
  binding result: binds more weakly
Hel-CTD (human); [4]
  binding result: binds

## ATACGUCCUGAUAGUUAGUAUCCATC / CGATGGAUACUAACUAUCAGGACGTA [ds26 stem RNA]
[1]; CHL inhibition lost, DNA at both ends: strand 1 nt 1-5 and 23-26, strand 2 nt 1-5 and 23-26, rest RNA, label: internal Cy3 in strand 2 after C13 (AAC(Cy3)UAU)
  binding result: binds
Hel-CTD (human); DNA at both ends: strand 1 nt 1-5 and 23-26, strand 2 nt 1-5 and 23-26, rest RNA, label: internal Cy3 in strand 2 after C13 (AAC(Cy3)UAU)
  binding result: binds

## AUACGUCCUGAUAGUUAGUAUCCAUCG / CGAUGGAUACUAACUAUCAGGACGUAU [5'ppp ds27]
[1]; value only in figure, 5'ppp on strand 1, label: 3' DY547 and 5' biotin on strand 2
  binding result: binds
CHL-Hel-CTD (human); not weaker than Hel-CTD, 5'ppp on strand 1, label: 3' DY547 and 5' biotin on strand 2
  binding result: binds
Hel-CTD (human); 5'ppp on strand 1, label: 3' DY547 and 5' biotin on strand 2
  binding result: binds

## CUAUACGUCCUGAUAGUUAGUAUCCAUCG / CGAUGGAUACUAACUAUCAGGACGUAU [5'OH 5'ovg ds27]
WT RIG-I (human)
  binding signal (fold weaker than Hel-CTD): 240
[1]; [2]
  binding result: binds
CHL-Hel-CTD (human); [3]
  binding result: binds more weakly
Hel-CTD (human); [4]
  binding result: binds
